SMILES strings stand for the structures. The list shows a part of the results. This data set is noisy: repeats of one test often differ as much as different tests do.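 U2OS cells expressing ACE2 were combined with U2OS cells expressing full-length spike, and imaging quantified fusion as the fraction of nuclei displaying both cell types' fluorescent markers. Non-toxic compounds with a fusion z-score under -3, i.e., over three standard deviations below the plate's DMSO wells, are called inhibitory hits.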

This note sets out measurements from the supplement of paper PMC8104966.

This experiment relates to U2OS ACE2 x SARS-CoV-2 spike co-culture. The experiment can be described thus: cell-cell fusion (fraction fused) z-score vs plate DMSO control; higher = more fusion. Particulars: 30 µM; 5 h; toxicity class: non-toxic, passed QC.
As for `C=C[C@]1(C)C[C@@H](OC(=O)CS[C@@H]2C[C@H]3CC[C@@H](C2)N3C)[C@]2(C)[C@H](C)CC[C@]3(CCC(=O)[C@H]32)[C@@H](C)[C@@H]1O` [Retapamulin], the “cell-cell fusion (z-score)” value was inactive: 2.02.
Next, `NC(=O)OC[C@H](N)Cc1ccccc1` [solriamfetol]: inactive: 1.72; `O=c1ccn([C@@H]2O[C@H](CO)[C@@H](O)[C@H]2O)c(=O)[nH]1`: inactive: 1.75.
Next, `O=C1CCC(c2ccc(-n3ccnc3)cc2)=NN1` [Imazodan]: inactive: 1.02; `COc1cc(/C=C/C(=O)O)cc(OC)c1O`: inactive: 1.75.
Next, `CS(=O)(=O)O.O.O=C(O[C@H]1C[C@H]2CC3C[C@@H](C1)N2CC3=O)c1c[nH]c2ccccc12` [Dolasetron mesylate hydrate]: inactive: 0.789.
Regarding `OCC(O)CN1CCN(c2ccccc2)CC1` (centres undefined), the “cell-cell fusion (z-score)” value was inactive: 0.858.
Next, `COC(=O)c1c(C)[nH]c(C)c1C(=O)c1ccccc1Cc1ccccc1`: inactive: -1.32.
Turning to `CCN(CC)CCc1nc(-c2ccccc2)no1.O=C(O)CC(O)(CC(=O)O)C(=O)O`, the “cell-cell fusion (z-score)” value was inactive: 1.88.
For `Cc1ccc(S(=O)(=O)NC(=O)NN2CCCCCC2)cc1`, the “cell-cell fusion (z-score)” value is inactive: 0.998.
Consider `Cc1ccc(S(=O)(=O)NC(=O)NN2CCCCCC2)cc1` [Tolazamide], for which the “cell-cell fusion (z-score)” value is inactive: 1.41.
Regarding `CO[C@@H]1[C@@H](OC(N)=O)[C@@H](O)[C@H](Oc2ccc3c([O-])c(NC(=O)c4ccc(O)c(CC=C(C)C)c4)c(=O)oc3c2C)OC1(C)C.[Na+]`, the “cell-cell fusion (z-score)” value was inactive: 2.02.
Next, `Cl.O=C(CCCCCN1CCN(c2ccccc2-c2ccccc2)CC1)NC1CCCc2ccccc21` (centres undefined) [LP 12 hydrochloride hydrate]: inactive: 0.015.
Next, `Cl.O=S(=O)(c1cccc2c(Cl)cccc12)N1CCCNCC1`: inactive: -1.95.
Next, `CCc1cc(-c2n[nH]c(C)c2-c2ccc3c(c2)OCCO3)c(O)cc1O`: inactive: -1.25; `COc1cc2c(cc1OC)C(=O)OC2`: inactive: 1.33.
As for `Cc1cccc(C(=O)NCN2CCN(c3ccccc3C#N)CC2)c1.O=C(O)/C=C\C(=O)O` [PD 168,077 maleate], the “cell-cell fusion (z-score)” value is inactive: 1.2.
For `CC(C)C[C@H](NC(=O)CNC(=O)c1cc(Cl)ccc1Cl)B1OC(=O)CC(CC(=O)O)(C(=O)O)O1` (some centres undefined), the “cell-cell fusion (z-score)” value was inactive: 2.93.
As for `CC(=O)[C@@]1(O)CCC2C3CCC4=CC(=O)CC[C@]4(C)C3CC[C@@]21C` (some centres undefined), the “cell-cell fusion (z-score)” value was inactive: 0.309.
The value for `O=C(O)c1ccccc1C(=O)Nc1ccc(S(=O)(=O)Nc2nccs2)cc1` was inactive: 0.391.
Next, `CC(C)C[C@H](N)C(=O)O` [L-Leucine]: inactive: 2.34.
Next, `CC(C)C[C@H](N)C(=O)O`: inactive: 2.19; `O=S(=O)([O-])CCSSCCS(=O)(=O)[O-].[Na+].[Na+]`: inactive: 2.23.
`Cc1ccc(S(=O)(=O)N[C@@H](CCCCN)C(=O)CCl)cc1.Cl` [Na-p-Tosyl-L-lysine chloromethyl ketone hydrochloride]: the “cell-cell fusion (z-score)” value is inactive: 0.159.
Next, `CC(=O)O[C@H]1C[C@@H](OC(C)=O)C(C)(C)C2C[C@@H](OC(C)=O)[C@@]3(C)C4=CC(=O)O[C@@H](c5ccoc5)[C@]4(C)CCC3[C@]21C` (some centres undefined): inactive: 3.24; `O=C(O)c1ccc2cc(-c3ccc(O)c(C45CC6CC(CC(C6)C4)C5)c3)ccc2c1`: inactive: 3.05.
With `O=C(O)c1cc(-c2ccccc2)nc2ccccc12`, the “cell-cell fusion (z-score)” value is inactive: 2.44.
With `CCC(=O)Nc1cccc(Oc2nc(Nc3ccc(N4CCN(C)CC4)cc3OC)ncc2Cl)c1`, the “cell-cell fusion (z-score)” value is inactive: 0.512.
Next, `CNCCc1c[nH]c2ccc(O)cc12.O=C(O)C(=O)O` [N-omega-Methyl-5-hydroxytryptamine oxalate salt]: inactive: 2.81; `OCC(O)COc1ccc(Cl)cc1` (centres undefined) [Chlorphenesin]: inactive: 2.07.
The value for `COc1ccc(-c2coc3cc(O)cc(OC)c3c2=O)cc1` was inactive: 1.13; that for `Cl.Cn1c(CCCC(=O)O)nc2cc(N(CCCl)CCCl)ccc21` [Bendamustine hydrochloride] was inactive: 3.41.
Next, `Cl.O=C1CC2(CCCC2)CC(=O)N1CCCCN1CCN(c2ncccn2)CC1`: inactive: 4.6; `Cl.O=C1CC2(CCCC2)CC(=O)N1CCCCN1CCN(c2ncccn2)CC1` [Buspirone hydrochloride]: inactive: 2.05.
